Data as given in PubChem BioAssay AID248 (DTP/NCI, 2004).
The list shows only some results of the screen, not a fair sample: it gathers tests that were run many times, whatever their T/C, doses with no T/C, and many T/C values between a quarter and a half above the control. Further doses and runs are listed elsewhere. T/C: endpoint of the treated group in % of that of the vehicle group. Some entries give survivors of the animals treated and no T/C: the source holds a T/C of zero for them, seemingly a mark for toxic or unscored doses. Some survivor counts are full or nearly so, which does not show that the dose was tolerated: survival well below the control is almost never listed, so the zero probably covers shortened survival too. Survivors were counted at the toxicity check, usually on the fifth day, unless a day is given; later deaths do not show. Schedules are NCI's codes, read here as Q, the interval in days (D) or hours (H), X, the number of doses. Some schedules carry Z or #; the key to these is not given. For survival time, the PubChem record calls one and a half times the control and up active, and a quarter to a half above the control has no call in these data; cut-offs in other NCI protocols can differ. Some doses were run more than once; the results are listed from low to high.

Test system: L1210 leukemia ip in BDF1 mice, survival T/C
Experiment: NCI In Vivo Anticancer Drug Screen. Data for tumor model L1210 Leukemia (intraperitoneal) in B6D2F1 (BDF1) mice
Details: T/C endpoint: mean survival time, higher T/C = longer survival
[1] = dose: 400.0 mg/kg/injection, schedule: Q04DX002 (ip), vehicle: Klucel (hydroxypropylcellulose) (HPC)
[2] = dose: 300.0 mg/kg/injection, schedule: Q01DX001 (ip), vehicle: other
[3] = dose: 200.0 mg/kg/injection, schedule: Q01DX001 (ip), vehicle: saline
[4] = dose: 400.0 mg/kg/injection, schedule: Q01DX001 (ip), vehicle: saline

CN1CCN=C1c1ccc(NC(=O)c2ccc(C(=O)Nc3ccc(C4=NCCN4C)cc3)c([N+](=O)[O-])c2)cc1
survivor count (dose: 12.0 mg/kg/injection, schedule: Q01DX Z (ip), vehicle: carboxymethylcellulose (CMC)): 3 of 6

CC(C)(C)c1ccc(SCCN=C(N)CSS(=O)(=O)O)cc1
survivor count (dose: 12.5 mg/kg/injection, schedule: Q01DX009 (ip), vehicle: Klucel (hydroxypropylcellulose) (HPC)): 0 of 3 | survivor count (dose: 25.0 mg/kg/injection, schedule: Q04DX002 (ip), vehicle: Klucel (hydroxypropylcellulose) (HPC)): 0 of 3 | survivor count (dose: 50.0 mg/kg/injection, schedule: Q04DX002 (ip), vehicle: Klucel (hydroxypropylcellulose) (HPC)): 0 of 3 | survivor count (dose: 100.0 mg/kg/injection, schedule: Q04DX002 (ip), vehicle: Klucel (hydroxypropylcellulose) (HPC)): 0 of 3 | survivor count (dose: 200.0 mg/kg/injection, schedule: Q04DX002 (ip), vehicle: Klucel (hydroxypropylcellulose) (HPC)): 0 of 3 | survivor count [1]: 0 of 3

Cc1c(C(N)=O)no[n+]1[O-]
survivor count [1]: 2 of 3

CCNC(Cc1ccccc1)c1ccco1 (stereo not given)
survivor count (dose: 200.0 mg/kg/injection, schedule: Q01DX009 (ip), vehicle: Klucel (hydroxypropylcellulose) (HPC)): 0 of 6

CCCc1nc2c(nc1C)C(=O)C=CC2=O
survivor count (dose: 19.0 mg/kg/injection, schedule: Q01DX001 (ip), vehicle: other): 5 of 6 | survivor count (dose: 38.0 mg/kg/injection, schedule: Q01DX001 (ip), vehicle: other): 0 of 6 | survivor count (dose: 75.0 mg/kg/injection, schedule: Q01DX001 (ip), vehicle: other): 0 of 6 | survivor count (dose: 150.0 mg/kg/injection, schedule: Q01DX001 (ip), vehicle: other): 0 of 6 | survivor count [2]: 0 of 6

Cc1cc2nc3c(=O)[nH]c(=O)nc-3n(CC(O)C(O)C(O)C(O)CO)c2cc1C (stereo not given)
survivor count (dose: 800.0 mg/kg/injection, schedule: Q01DX015 (ip), vehicle: saline): 4 of 6 | survivor count (dose: 1600.0 mg/kg/injection, schedule: Q01DX001 (ip), vehicle: acetone): 0 of 6

COC(=O)c1[nH]cnc1/N=N/N(C)C
T/C (dose: 13.0 mg/kg/injection, schedule: Q01DX Z (ip), vehicle: saline): 125 % of control | T/C (dose: 13.3 mg/kg/injection, schedule: Q01DX009 (ip), vehicle: saline): 125 % of control | T/C (dose: 13.5 mg/kg/injection, schedule: Q01DX009 (ip), vehicle: saline): 131 % of control | T/C (dose: 14.0 mg/kg/injection, schedule: Q01DX015 (ip), vehicle: saline): 127 % of control | T/C (dose: 20.0 mg/kg/injection, schedule: Q01DX009 (ip), vehicle: saline): 132 % of control | T/C (dose: 20.0 mg/kg/injection, schedule: Q01DX Z (ip), vehicle: saline): 138 % of control | T/C (dose: 21.0 mg/kg/injection, schedule: Q01DX015 (ip), vehicle: saline): 128 % of control | T/C (dose: 22.5 mg/kg/injection, schedule: Q01DX Z (ip), vehicle: saline): 147 % of control | T/C (dose: 30.0 mg/kg/injection, schedule: Q01DX009 (ip), vehicle: saline): 138 % of control | T/C (dose: 31.0 mg/kg/injection, schedule: Q01DX Z (ip), vehicle: saline): 144 % of control | T/C (dose: 31.5 mg/kg/injection, schedule: Q01DX015 (ip), vehicle: saline): 134 and 139 % of control | T/C (dose: 45.0 mg/kg/injection, schedule: Q01DX009 (ip), vehicle: saline): 127 % of control | T/C (dose: 45.0 mg/kg/injection, schedule: Q01DX Z (ip), vehicle: saline): 148 % of control | T/C (dose: 89.0 mg/kg/injection, schedule: Q04DX003 (ip), vehicle: saline): 126 % of control | survivor count (dose: 125.0 mg/kg/injection, schedule: Q01DX Z (ip), vehicle: saline): 6 of 6 | T/C (dose: 133.4 mg/kg/injection, schedule: Q01DX001 (ip), vehicle: saline): 132 % of control | survivor count (dose: 150.0 mg/kg/injection, schedule: Q01DX015 (ip), vehicle: saline): 6 of 6 | T/C [3]: 132 and 144 % of control | survivor count (dose: 250.0 mg/kg/injection, schedule: Q01DX Z (ip), vehicle: saline): 5 of 6 | T/C (dose: 300.0 mg/kg/injection, schedule: Q01DX001 (ip), vehicle: saline, evaluated on day 30): 132 and 134 % of control | T/C (dose: 300.0 mg/kg/injection, schedule: Q01DX001 (ip), vehicle: saline, run until all animals had died): 141 % of control | survivor count [4]: 2 of 4 | survivor count (dose: 600.0 mg/kg/injection, schedule: Q01DX001 (ip), vehicle: saline): 1 of 6

Cc1c(Br)c(=O)n(-c2ccccc2)n1C
survivor count (dose: 400.0 mg/kg/injection, schedule: Q04DX003 (ip), vehicle: Klucel (hydroxypropylcellulose) (HPC)): 1 of 6

[Se]=P(c1ccccc1)(c1ccccc1)c1ccccc1
survivor count (dose: 400.0 mg/kg/injection, schedule: Q01DX009 (ip), vehicle: Klucel (hydroxypropylcellulose) (HPC)): 0 of 6

O=[N+]([O-])c1cc2c(cc1/C=N/N=C1c3ccccc3-c3ccccc31)OCO2
survivor count [2]: 6 of 6

CCOC(=O)N(CCCCCCNC(c1ccccc1)S(=O)(=O)O)c1ccccc1 (stereo not given)
survivor count (dose: 100.0 mg/kg/injection, schedule: Q01DX009 (ip), vehicle: saline): 5 of 6 | survivor count (dose: 200.0 mg/kg/injection, schedule: Q01DX001 (ip), vehicle: carboxymethylcellulose (CMC)): 3 of 6 | survivor count [3]: 1 of 4 | survivor count (dose: 200.0 mg/kg/injection, schedule: Q01DX009 (ip), vehicle: saline): 0 of 6 | survivor count (dose: 300.0 mg/kg/injection, schedule: Q01DX009 (ip), vehicle: saline): 0 of 6 | survivor count (dose: 400.0 mg/kg/injection, schedule: Q01DX001 (ip), vehicle: carboxymethylcellulose (CMC)): 0 of 6 | survivor count [4]: 0 of 4 | survivor count (dose: 800.0 mg/kg/injection, schedule: Q01DX001 (ip), vehicle: saline): 0 of 4
